# According to the supplement of paper PMC8104966:
# This is one part of the list. This data set is noisy: repeats of one test often differ as much as different tests do.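 U2OS cells expressing ACE2 were combined with U2OS cells expressing full-length spike, and imaging quantified fusion as the fraction of nuclei displaying both cell types' fluorescent markers. Non-toxic compounds with a fusion z-score under -3, i.e., over three standard deviations below the plate's DMSO wells, are called inhibitory hits.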
# System: U2OS ACE2 x SARS-CoV-2 spike co-culture
# Experiment: cell-cell fusion (fraction fused) z-score vs plate DMSO control; higher = more fusion
# Settings: 30 µM; 5 h; toxicity class: non-toxic, passed QC
row,Structure (SMILES),cell-cell fusion (z-score)
1,CC/C(=C(/CC)c1ccc(O)cc1)c1ccc(O)cc1,inactive: 0.852
2,O=C(O)c1cc(O)c(=O)c2c(O)c(O)c(O)cc2c1,inactive: 2.38
3,NCC1(CC(=O)O)CCCCC1,inactive: 3.55
4,NCC1(CC(=O)O)CCCCC1 [Gabapentin],inactive: 2.86
5,COc1ccc2c3c1O[C@H]1C[C@@H](O)C=C[C@@]31CCN(C)C2,inactive: 3.31
6,O=C(O)c1ccccc1Nc1cccc(C(F)(F)F)c1,inactive: 1.01
7,CC(C)[C@@]12O[C@@H]1[C@@H]1O[C@]13[C@]1(O[C@@H]1C[C@@H]1C4=C(CC[C@@]13C)C(=O)OC4)[C@@H]2O [Triptolide],inactive: 2.4
8,CC(C(=O)O)c1ccc(CC2CCCC2=O)cc1 (stereo not drawn) [loxoprofen],inactive: 2.42
9,CN(C)C(=O)Oc1cccc([N+](C)(C)C)c1.[Br-] [Neostigmine bromide],inactive: 1.41
10,COc1c(C)cnc(Cn2cnc3c(Cl)nc(N)nc32)c1C,inactive: 1.39
11,CN1CCN2c3ccccc3Cc3ccccc3C2C1.Cl (stereo not drawn) [Mianserin hydrochloride],inactive: 2.21
12,CN1CCN2c3ccccc3Cc3ccccc3C2C1.Cl (stereo not drawn),inactive: 3.64
13,O=C(O)C(O)C(O)C(O)C(O)C(=O)O (stereo not drawn),inactive: 1.24
14,CCNC(=O)CC[C@H](N)C(=O)[O-].[K+],inactive: 2.89
15,O=C(/C=C/c1ccccc1)c1ccc(O)cc1,inactive: 0.849
16,CC(=O)OCC(=O)[C@@]1(O)CC[C@H]2[C@@H]3CCC4=CC(=O)CC[C@]4(C)[C@H]3C(=O)C[C@@]21C [Cortisone acetate],inactive: 1.2
17,CC(=O)OCC(=O)[C@@]1(O)CC[C@H]2[C@@H]3CCC4=CC(=O)CC[C@]4(C)[C@H]3C(=O)C[C@@]21C [Cortisone 21-acetate],inactive: 2.19
18,Cc1coc2c1C(=O)C(=O)c1c-2ccc2c1CCCC2(C)C,inactive: 1.01
19,N#CC(O[C@@H]1O[C@H](CO[C@@H]2O[C@H](CO)[C@@H](O)[C@H](O)[C@H]2O)[C@@H](O)[C@H](O)[C@H]1O)c1ccccc1 (stereo partly drawn),inactive: 1.93
20,CN1C2CCC1CC(OC(c1ccccc1)c1ccccc1N)C2 (stereo not drawn) [Aminobenztropine],inactive: 1.42
21,Cl.OCC1NCC(O)C(O)C1O (stereo not drawn) [1-Deoxynojirimycin hydrochloride],inactive: 0.653
22,C[C@]12C=CC(=O)C=C1CCC1C2CC[C@]2(C)C(=O)CCC12 (stereo partly drawn),inactive: 2.83
23,COc1cc(OC)c2c(=O)c(O)c(-c3ccc(OC)c(OC)c3)oc2c1,inactive: 1.96
24,Nc1nc(F)nc2c1ncn2[C@H]1O[C@H](CO)[C@@H](O)[C@@H]1O [Fludarabine (Fludara)],inactive: 1.73
25,COc1cc(C(=O)NCCCCCC(=O)O)cc(OC)c1OC,inactive: 1.7

row,Structure (SMILES),cell-cell fusion (z-score)
1,O=C1[C@H](CC[C@H](O)c2ccc(F)cc2)[C@H](c2ccc(O)cc2)N1c1ccc(F)cc1 [Ezetimibe (Zetia)],inactive: -2.6
2,Nc1ncnc2c1ncn2[C@@H]1O[C@H](CO)[C@@H](O)[C@H]1O,inactive: 0.0405
3,CC1(C)C(=O)C=C[C@@]2(C)C1C[C@@H](O)[C@]1(C)C2CC[C@@]2(C)[C@H](c3ccoc3)OC(=O)[C@H]3O[C@]321 (stereo partly drawn),inactive: 1.77
4,Cl.N[C@@H](Cc1ccccc1)C(=O)O,inactive: 1.84
5,Cc1ccc([N+](=O)[O-])cc1S(=O)(=O)N(C)C,inactive: 1.2
6,c1ccc2[nH]c(-c3cscn3)nc2c1,inactive: 2.54
7,"Cl.Nc1c2c(nc3ccccc13)CCCC2 [9-Amino-1,2,3,4-tetrahydroacridine hydrochloride]",inactive: 2.48
8,C[C@@H](O)[C@H]1C(=O)N2C(C(=O)O)=C(S[C@@H]3CN[C@H](C(=O)N(C)C)C3)[C@H](C)[C@H]12 [Meropenem],inactive: 2.33
9,C[C@H]1CC2C([C@@H](O)C[C@@]3(C)C2CC[C@]3(O)C(=O)CO)[C@@]2(C)C=CC(=O)C=C12 (stereo partly drawn),inactive: -0.407
10,CC(C(O)c1ccc(O)cc1)N1CCC(Cc2ccccc2)CC1.CC(C(O)c1ccc(O)cc1)N1CCC(Cc2ccccc2)CC1.O=C(O)C(O)C(O)C(=O)O (stereo not drawn) [Ifenprodil tartrate],inactive: 0.85
11,C[C@@H]1CC[C@H]2C(C)(C)C3CC12CC[C@@]3(C)O (stereo partly drawn),inactive: 1.16
12,CN(C)Cc1ccc(-c2nc3cccc4c3n2CCNC4=O)cc1,inactive: 2.4
13,C[C@H](CCC(=O)[O-])[C@H]1CC[C@H]2[C@@H]3CC[C@@H]4C[C@H](O)CC[C@]4(C)[C@H]3C[C@H](O)[C@]12C.[Na+] [Sodium Desoxycholate],inactive: 0.631
14,CC(=O)S[C@@H]1CC2=CC(=O)CC[C@]2(C)[C@H]2CC[C@@]3(C)[C@@H](CC[C@@]34CCC(=O)O4)[C@H]12 [Abbolactone],inactive: 3.15
15,C=CCCCCCCCCCCCC(O)CC(O)COC(C)=O (stereo not drawn),inactive: 3.1
16,O=C(CCCN1C=CC(n2c(=O)[nH]c3ccccc32)CC1)c1ccc(F)cc1 (stereo not drawn) [Droperidol],inactive: 3.09
17,Cl.O=C1CC2(CCCC2)CC(=O)N1CCCCN1CCN(c2ncccn2)CC1 [Buspirone hydrochloride],inactive: 1.46
18,CCC(c1ccc(O)cc1)C(CC)c1ccc(O)cc1 (stereo not drawn),inactive: -1.91
19,COc1cc2c(c(OC)c1OC)-c1ccc(O)c(=O)cc1[C@@H](NC(C)=O)CC2,inactive: 2.13
20,CC(=O)N1CCCC1C(=O)O (stereo not drawn),inactive: 1.47
21,Cc1cnc(NC(=O)Nc2cc(Br)c(C)cc2OC[C@@H]2CNCCO2)cn1,inactive: -1.24
22,CC[N+](C)(C)c1cccc(O)c1.[Cl-] [Edrophonium chloride],inactive: 2.48
23,Cc1cc2c(cc1Cl)N(C(=O)Nc1ccnc3ccccc13)CC2,inactive: 1.41
24,CC(=O)N[C@H](C(=O)O)C(C)(C)SN=O [S-Nitroso-N-acetylpenicillamine],inactive: 3
25,CCCCN(CCCC)CC(O)c1cc(Cl)cc2c1-c1ccc(Cl)cc1/C2=C/c1ccc(Cl)cc1 (stereo not drawn) [Lumefantrine],inactive: 3.68

# Quoted from the listing (5 entries):
row,Structure (SMILES),cell-cell fusion (z-score)
3,CC1(C)C(=O)C=C[C@@]2(C)C1C[C@@H](O)[C@]1(C)C2CC[C@@]2(C)[C@H](c3ccoc3)OC(=O)[C@H]3O[C@]321 (stereo partly drawn),inactive: 1.77
4,Cl.N[C@@H](Cc1ccccc1)C(=O)O,inactive: 1.84
5,Cc1ccc([N+](=O)[O-])cc1S(=O)(=O)N(C)C,inactive: 1.2
6,c1ccc2[nH]c(-c3cscn3)nc2c1,inactive: 2.54
7,"Cl.Nc1c2c(nc3ccccc13)CCCC2 [9-Amino-1,2,3,4-tetrahydroacridine hydrochloride]",inactive: 2.48

# Next results

row,Structure (SMILES),cell-cell fusion (z-score)
1,NC(=O)CI [Iodoacetamide],inactive: 1.07
2,CNC(=C[N+](=O)[O-])NCCSCc1ccc(CN(C)C)o1 [Ranitidin],inactive: 3.1
3,COC[C@H]1OC(=O)c2coc3c2[C@@]1(C)C1=C(C3=O)C2CCC(=O)[C@@]2(C)C[C@H]1OC(C)=O (stereo partly drawn) [Wortmannin from Penicillium funiculosum],inactive: 0.268
4,CCCCC(CC)COC(=O)CC(C(=O)OCC(CC)CCCC)S(=O)(=O)[O-].[Na+] (stereo not drawn),inactive: 3.99
5,OCCOc1ccc(/C(=C(/CCCl)c2ccccc2)c2ccccc2)cc1 [Ospemifene],inactive: 2.42
6,CCN(CC)C(=O)c1cccc(C)c1,inactive: 0.142
7,CCc1cc(Cl)c(OC)c(C(=O)NC[C@@H]2CCN(CC)C2)c1O.Cl [S-(-)-Eticlopride hydrochloride],inactive: 2.61
8,C[N+](C)(C)C[C@H](O)CC(=O)[O-] [L(-)-Carnitine],inactive: 3.95
9,O=C(Nc1nc2ccccc2n1CCN1CCOCC1)c1cccc([N+](=O)[O-])c1 [IRAK-1/4 Inhibitor I],inactive: 0.493
10,Cc1ccc(C(=O)c2cc(O)c(O)c([N+](=O)[O-])c2)cc1 [Tolcapone],inactive: 1.65
11,CCCCCOC(=O)Nc1nc(=O)n([C@@H]2O[C@H](C)[C@@H](O)[C@H]2O)cc1F [Capecitabine],inactive: 3.32
12,Br.CCSC(=N)N [S-Ethylisothiourea hydrobromide],inactive: 2.53
13,Cn1nnc2c(C(N)=O)ncn2c1=O [Temozolomide],inactive: 0.476
14,C#C[C@]1(OC(C)=O)CCC2C3CCC4=C/C(=N/O)CCC4C3CC[C@@]21CC (stereo partly drawn),inactive: 0.09
15,CC1(C)CCC(CN2CCN(c3ccc(C(=O)NS(=O)(=O)c4ccc(NCC5CCOCC5)c([N+](=O)[O-])c4)c(Oc4cnc5[nH]ccc5c4)c3)CC2)=C(c2ccc(Cl)cc2)C1,inactive: 4.83
16,COc1cc2c(cc1OC)C(=O)C(CC1CCN(Cc3ccccc3)CC1)C2.Cl (stereo not drawn) [Donepezil HCl],inactive: 1.62
17,CN(CC[C@@H](Oc1ccc(C(F)(F)F)cc1)c1ccccc1)CC(=O)[O-].[Li+],inactive: 1.91
18,CN(C)CCN(Cc1ccc(Cl)cc1)c1ccccn1.Cl,inactive: 2.55
19,Cl.O=C(c1ccc(OCCN2CCCCC2)cc1)c1c(-c2ccc(O)cc2)sc2cc(O)ccc12 [Evista (Raloxifene Hydrochloride)],inactive: 3.17
20,C=CCn1c(=O)c2cnc(Nc3ccc(N4CCN(C)CC4)cc3)nc2n1-c1cccc(C(C)(C)O)n1,inactive: 1.89
21,CC(=O)Nc1ccc(O)cc1,inactive: 0.876
22,"C[C@]12CC[C@@H](O)C[C@H]1CCc1ccccc12 [3alpha-HYDROXY-4,4-BISNOR-8,11,13-PODOCARPATRIENE]",inactive: 2.58
23,COc1ccccc1N1CCN(CCCNc2cc(=O)n(C)c(=O)n2C)CC1.Cl,inactive: 2.01
